Test results taken from PubChem BioAssay AID540275 (National Center for Advancing Translational Sciences (NCATS), 2011).
Among all 320,000 compounds or so, about 620 (0.19%) were called active. This list was built around the results that the source calls inconclusive (neither active nor inactive); the mix of calls is not that of the screen. No stated cut-off is given here; in the data, active means activation above about 80%; inconclusive means between about 30% and that limit; inactive means weaker than that.
Further: 0% is about no effect.

Sequences of proteins named here, by UniProt entry; tags and fusion partners are left off.
UniProt Q8NER1, whole entry, looked up: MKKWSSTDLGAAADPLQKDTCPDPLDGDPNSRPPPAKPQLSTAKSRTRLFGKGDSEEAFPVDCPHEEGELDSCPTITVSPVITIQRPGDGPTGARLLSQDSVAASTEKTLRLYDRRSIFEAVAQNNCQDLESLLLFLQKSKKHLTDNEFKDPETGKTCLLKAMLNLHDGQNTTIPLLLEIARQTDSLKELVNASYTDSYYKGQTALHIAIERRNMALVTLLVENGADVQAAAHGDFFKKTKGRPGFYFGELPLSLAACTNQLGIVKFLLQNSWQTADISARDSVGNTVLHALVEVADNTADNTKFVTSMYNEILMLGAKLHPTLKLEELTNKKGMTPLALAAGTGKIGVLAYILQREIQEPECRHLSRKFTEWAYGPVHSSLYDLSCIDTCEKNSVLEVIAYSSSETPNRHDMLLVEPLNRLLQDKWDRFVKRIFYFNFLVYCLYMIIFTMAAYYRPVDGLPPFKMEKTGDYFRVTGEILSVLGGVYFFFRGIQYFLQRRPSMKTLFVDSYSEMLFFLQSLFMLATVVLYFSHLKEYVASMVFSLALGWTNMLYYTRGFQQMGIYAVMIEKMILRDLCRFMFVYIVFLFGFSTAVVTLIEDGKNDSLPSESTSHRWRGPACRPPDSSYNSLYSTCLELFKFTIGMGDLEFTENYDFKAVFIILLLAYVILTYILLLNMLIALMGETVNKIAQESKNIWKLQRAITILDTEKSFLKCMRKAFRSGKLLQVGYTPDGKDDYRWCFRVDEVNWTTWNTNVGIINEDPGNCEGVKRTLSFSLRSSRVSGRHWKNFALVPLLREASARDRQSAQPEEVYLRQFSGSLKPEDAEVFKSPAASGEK

Each molecule was assayed against Transient receptor potential cation channel subfamily V member 1 (Homo sapiens) (UniProt Q8NER1) (assay: HTS Assay for Compounds that Act as Agonists of the Vanilloid Receptor 1). Settings: TRPV1-expressing cells, Fluo-8 calcium influx, agonist mode; at 8.33 µM, stronger effect = higher value.
Method in brief: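 Cells expressing TRPV1 were dye-loaded with Fluo-8 and read kinetically: 10 s baseline, 3 min after compound (agonist portion), then 2 min after EC20 capsaicin (allosteric enhancer portion). Calcium-bound dye fluorescence at 480/520 nm.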
With `COc1cc(OC)c2c(C)cc(=O)oc2c1C(CCN1CCOCC1)c1ccc(N(C)C)cc1` (stereo unspecified) the activation was inconclusive: 42.3%. In the case of `CCN(CCCNC(=O)c1[nH]c(C)c(C(C)=O)c1C)c1ccccc1`, the activation is reported as inconclusive: 51.5%. For `CCN(Cc1ccccc1)C(c1ccccn1)c1nnnn1C1CCCCC1` (stereo unspecified), the activation was inconclusive: 30.5%. With `COc1c(Cl)cc(-c2noc(C)c2C(=O)NCc2ccccc2)cc1Cl` the activation was inconclusive: 34.4%. For `CC1CC(C)CN(C(=O)COC(=O)Cc2ccc(Br)cc2)C1` (stereo unspecified), the activation was inconclusive: 34.8%. `Cc1cc(N2CCN(c3ccccc3)CC2)nc(-c2ccccc2O)n1` was tested, and the activation was inactive: 2.75%. `Cc1coc2cc3oc(=O)c4c(c3cc12)CCCC4` was tested, and the activation was inactive: 8.04%. With `CC(=O)c1c(C)[nH]c(C(=O)COC(=O)c2cc(C)oc2C)c1C` the activation was inconclusive: 32.6%. In the case of `O=C1CCN(CCc2ccccc2)CCN1CCSc1ccccc1`, the activation is reported as inconclusive: 36%. In the case of `O=C(N/N=C/c1ccncc1)c1nc(-c2ccccc2)n2c1CCCCC2`, the activation is reported as inconclusive: 33.4%. For `O=C(Nc1cccnc1)Nc1cccc([N+](=O)[O-])c1`, the activation was inconclusive: 46.6%. With `O=C(c1ccc(Br)c(S(=O)(=O)N2CCCCC2)c1)N1CCCCC1` the activation was inactive: 22.6%. With `CCN(CC)S(=O)(=O)c1ccc(-c2nnc3sc4cccc(C)c4n23)cc1` the activation was inconclusive: 34.4%. For `COc1cc(/C=N/N2C(=O)c3ccccc3NC2(C)c2cccc([N+](=O)[O-])c2)cc(Br)c1O` (stereo unspecified), the activation was inactive: 0.376%. In the case of `O=C1Nc2ccccc2/C1=C\C(=O)c1ccccc1`, the activation is reported as inactive: 20.4%. For `COc1ccccc1NS(=O)(=O)c1ccc(-c2cnc(C3CC3)o2)cc1`, the activation was inactive: 0.509%. `Oc1ccc(N2CCN(C(=S)NCCc3ccccc3)CC2)cc1` was tested, and the activation was inconclusive: 68.7%. With `Nc1nc(-c2cccnc2)nc2sc3c(c12)CCCC3` the activation was inconclusive: 67.8%. In the case of `Cc1ccc(S(=O)(=O)N2CCN(C(=O)C(Cc3ccccc3)NC(=O)c3ccccc3)CC2)cc1` (stereo unspecified), the activation is reported as inconclusive: 47%. In the case of `Cc1ccc(OCCCSc2ncccn2)cc1C`, the activation is reported as inconclusive: 32.4%. With `O=C(Nc1ccc(Cl)c(Cl)c1)OCc1cccnc1` the activation was inconclusive: 34.5%. For `Cc1ccc(NC(=O)N2CCC(c3ccccc3)C2)cc1C` (stereo unspecified), the activation was inconclusive: 33.4%. For `NS(=O)(=O)c1ccc(CCNC(=O)C2CCCN2C(=O)OCc2ccccc2)cc1` (stereo unspecified), the activation was inactive: -1.71%. For `O=C(c1ccc2nc(N3CCOCC3)sc2c1)N1CCC(Cc2ccccc2)CC1`, the activation was inconclusive: 44.5%. In the case of `COc1ccc(/C=C/C(=O)OCC(=O)NCCNC(=O)COC(=O)/C=C/c2ccc(OC)cc2)cc1`, the activation is reported as inactive: 0.468%. In the case of `O=C(CCN1CCc2ccccc21)c1ccc2c(c1)OCCO2`, the activation is reported as inactive: -2.44%. For `CC1CCN(C(=O)/C=C/c2ccc(C(C)(C)C)cc2)CC1`, the activation was active: 88.8%. With `CC1(C)C(C=C(Cl)Cl)C1C(=O)OCc1cccc(Oc2ccccc2)c1` (stereo unspecified) the activation was inactive: -4.8%. `Cc1ccc(C)[n+](CC(=O)c2ccc(-c3ccccc3)cc2)c1` was tested, and the activation was inactive: 0.0774%. With `COc1ccc(CNC(=O)c2cc(SC)ccc2Cl)cc1OC` the activation was inconclusive: 47.8%. For `CCOC(=O)c1[nH]c2ccc(Br)cc2c1NC(=O)CCN1CCCC(C)(C)C1`, the activation was inconclusive: 51%. `CN(C(=O)CSC1=Nc2ccccc2C2=NC(c3ccccc3)C(=O)N12)C1CCCCC1` (stereo unspecified) was tested, and the activation was inactive: 2.1%. For `CC(C)Cn1c(CN2CCN(C)C(CCO)C2)nc2ccccc21` (stereo unspecified), the activation was inactive: -2.19%. For `CCc1nc2ccccc2c(C(=O)OCC(=O)C(C)(C)C)c1C`, the activation was inconclusive: 40.9%. In the case of `Cc1ccc(NC(=O)c2ccc(CSc3ccccn3)cc2)cc1`, the activation is reported as inconclusive: 66.4%. In the case of `CCN(CC)c1ccc(/C=N/NC(=O)c2ccco2)cc1`, the activation is reported as inconclusive: 39.3%. For `O=C(N/N=C/c1cc(Br)c(O)c(Br)c1O)c1ccc2c(c1)OCCO2`, the activation was inactive: 16.9%. For `CCCCN(C(=O)C1CC(=O)N(Cc2ccc(C)cc2)C1)c1c(N)n(CCCC)c(=O)[nH]c1=O` (stereo unspecified), the activation was inactive: -2.79%. For `ClC(Cl)c1nnc(-c2ccccc2)c(-c2c[nH]c3ccccc23)n1`, the activation was inactive: 4.37%. With `CCc1nc(SCC(=O)Nc2nc3c(s2)CCCC3)c2ccccc2n1` the activation was inactive: 5.82%. `CC(=O)/C=C/n1c(=S)oc2ccccc21` was tested, and the activation was inactive: 4.14%. `Cc1ccc(C(=O)N/C(=C\c2ccc(-c3ccc(Br)cc3)o2)C(=O)NCCCN(C)C)cc1` was tested, and the activation was inactive: 10.4%. `O=c1[nH]c(-[n+]2ccccc2)c(/C=N/NC([S-])=Nc2ccccc2)s1` was tested, and the activation was inconclusive: 38.9%. In the case of `Cc1ccc(C(=O)c2ccccc2C(=O)OCC(=O)NC(C)(C)C)cc1`, the activation is reported as inconclusive: 30.9%. In the case of `NC(=O)COc1ccc2oc(=O)cc(-c3cc4ccccc4o3)c2c1`, the activation is reported as inconclusive: 54.2%. `O=C(COc1ccccc1Cl)N1CCc2ccccc2C1` was tested, and the activation was inconclusive: 31.2%. With `Cc1cc(N2CCC(C(=O)N3CCN(c4cccc(C)c4C)CC3)CC2)n2ncnc2n1` the activation was inconclusive: 75.5%. For `FC(F)Oc1ccc(NC(=S)NCc2ccccc2)cc1`, the activation was inconclusive: 33.1%. For `COc1ccc(-c2cc(C(=O)Nc3ccc(S(=O)(=O)Nc4onc(C)c4C)cc3)c3ccccc3n2)cc1OC`, the activation was inactive: 4.34%. `COc1ccc(OC)c(NC(=O)CN2C(=O)CSc3ccc(S(=O)(=O)N4CCCC4)cc32)c1` was tested, and the activation was inconclusive: 30.4%. For `O=C(COC(=O)Cc1ccc(Cl)cc1Cl)NCCC1=CCCCC1`, the activation was inconclusive: 31.8%. For `COC(=O)C1=C(C)NC(C)=C(C(=O)OC)C1c1ccccc1[N+](=O)[O-]`, the activation was inactive: 8.12%. `CCOC(=O)C(/C=C(\C#N)C(=O)OCC)=C(/N)N1CCN(c2ccc(Cl)cc2)CC1` was tested, and the activation was inactive: -0.512%. In the case of `Cc1nc(Cc2nnc(SCC(=O)N3CCN(c4ccccc4)CC3)o2)cs1`, the activation is reported as inconclusive: 31.1%. For `COc1ccc2oc(C(=O)OCC(=O)NCc3ccccc3OC)c(C)c2c1`, the activation was inactive: 6.89%. With `COc1ccc(CNC(=O)CN2C(=O)CSc3ccc(S(=O)(=O)N4CCOCC4)cc32)c(OC)c1` the activation was inactive: 3.31%.
